From patent CN115746133A
No constants are given. Whether binding was seen depends on the method and setting. Some results given as binding are weak or reduced against the parent protein; the word gives no strength.

Biological target: 食蟹猴CD47-his蛋白 (Acro biosystems, cat#CD7-C52H1) (cynomolgus monkey)
Assay: capture ELISA, antibody captured by anti-mouse Fcγ, biotinylated cynomolgus CD47-his at 60 nM

binding: binds
B1: 小鼠抗人CD47单克隆抗体1H10 (antibody, V domains shown)
VH: EVQLQQSGAELVRSGASVTLSCTASGFKIKDYYMNWVKQRPEQGLEWIGWIGPENGDTENGPKFQDKATMTANTSSNTAFLQLSSLTPEDTAFYYCNAGGRGGFPYWGQGTQVTVST
VL: DILLTQTPLSLPVSLGDQASFSCRSSQDIVHINGKTYLEWYLQKPGQSPKLLIYRVSNRFSGVPDRFSGSGSGTDFTLKISRVEAEDLGVYYCFQGSHVPRTFGGGTKLEIK
